No constants are given. Whether binding was seen depends on the method and setting. Binding seen in cells or lysates may run through a third protein. Some entries that bind do so weakly or less than the wild type.
Tests used:
[1] = target: AGO2 (human (endogenous in HeLa)) (UniProt Q9UKV8); assay: co-IP; HeLa cell lysates; reciprocal Co-IP with anti-TBK1 antibody (blot anti-AGO2) or anti-AGO2 antibody (blot anti-TBK1); endogenous proteins
[2] = target: glutathione S‐transferase (GST)‐tagged AGO2 protein (human) (UniProt Q9UKV8); assay: pull-down; purified bacterially expressed GST-AGO2 incubated with HeLa cell lysates; GST pull-down, TBK1 detected; only the target purified
Myc‐AGO2 (human) [3] = target: Myc‐AGO2 (human) (UniProt Q9UKV8); assay: co-IP; lysates from 293T cells transfected with Myc-AGO2, treated with RNase (100 ng/ml) for 30 min at 37 °C; IP with anti-Myc antibody, blot anti-TBK1
Myc‐AGO2 (human) [4] = target: Myc‐AGO2 (human) (UniProt Q9UKV8); assay: co-IP; HeLa cells transfected with Myc-AGO2, treated with LPS (1 µg/ml) for 12 h; IP with anti-Myc antibody, blot with pS172-TBK1 antibody

Sequences of proteins named here, by UniProt entry; tags and fusion partners are left off.
UniProt Q9UKV8: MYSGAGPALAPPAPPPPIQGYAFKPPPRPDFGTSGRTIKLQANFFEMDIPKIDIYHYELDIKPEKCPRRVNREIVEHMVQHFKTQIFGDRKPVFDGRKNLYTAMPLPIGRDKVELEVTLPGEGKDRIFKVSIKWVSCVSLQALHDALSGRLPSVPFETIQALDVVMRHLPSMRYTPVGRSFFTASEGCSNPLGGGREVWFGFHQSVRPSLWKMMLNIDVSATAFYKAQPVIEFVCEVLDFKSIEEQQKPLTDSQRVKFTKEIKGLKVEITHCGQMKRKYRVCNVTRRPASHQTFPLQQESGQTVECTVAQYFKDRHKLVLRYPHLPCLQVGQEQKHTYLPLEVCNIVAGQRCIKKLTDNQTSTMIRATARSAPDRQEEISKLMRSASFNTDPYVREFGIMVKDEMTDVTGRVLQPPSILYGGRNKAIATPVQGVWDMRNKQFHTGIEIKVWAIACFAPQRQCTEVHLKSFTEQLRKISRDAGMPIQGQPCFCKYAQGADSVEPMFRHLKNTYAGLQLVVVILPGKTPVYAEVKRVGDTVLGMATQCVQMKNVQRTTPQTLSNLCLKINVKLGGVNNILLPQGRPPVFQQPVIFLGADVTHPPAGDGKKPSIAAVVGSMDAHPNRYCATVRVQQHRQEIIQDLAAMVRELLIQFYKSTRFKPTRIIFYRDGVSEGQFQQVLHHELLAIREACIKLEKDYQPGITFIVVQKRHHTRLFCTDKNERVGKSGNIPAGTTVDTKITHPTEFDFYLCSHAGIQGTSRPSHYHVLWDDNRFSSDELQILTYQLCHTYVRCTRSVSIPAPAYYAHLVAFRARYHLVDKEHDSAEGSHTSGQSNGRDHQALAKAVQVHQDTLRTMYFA

B1: Tank‐binding kinase 1 (TBK1) (enzyme, UniProt Q9UHD2 1-729)
chain: MQSTSNHLWLLSDILGQGATANVFRGRHKKTGDLFAIKVFNNISFLRPVDVQMREFEVLKKLNHKNIVKLFAIEEETTTRHKVLIMEFCPCGSLYTVLEEPSNAYGLPESEFLIVLRDVVGGMNHLRENGIVHRDIKPGNIMRVIGEDGQSVYKLTDFGAARELEDDEQFVSLYGTEEYLHPDMYERAVLRKDHQKKYGATVDLWSIGVTFYHAATGSLPFRPFEGPRRNKEVMYKIITGKPSGAISGVQKAENGPIDWSGDMPVSCSLSRGLQVLLTPVLANILEADQEKCWGFDQFFAETSDILHRMVIHVFSLQQMTAHKIYIHSYNTATIFHELVYKQTKIISSNQELIYEGRRLVLEPGRLAQHFPKTTEENPIFVVSREPLNTIGLIYEKISLPKVHPRYDLDGDASMAKAITGVVCYACRIASTLLLYQELMRKGIRWLIELIKDDYNETVHKKTEVVITLDFCIRNIEKTVKVYEKLMKINLEAAELGEISDIHTKLLRLSSSQGTIETSLQDIDSRLSPGGSLADAWAHQEGTHPKDRNVEKLQVLLNCMTEIYYQFKKDKAERRLAYNEEQIHKFDKQKLYYHATKAMTHFTDECVKKYEAFLNKSEEWIRKMLHLRKQLLSLTNQCFDIEEEVSKYQEYTNELQETLPQKMFTASSGIKHTMTPIYPSSNTLVEMTLGMKKLKEEMEGVVKELAENNHILERFGSLTMDGGLRNVDCL
binding [1]: binds
binding [2]: binds

B2: TBK1 (enzyme, UniProt Q9UHD2 1-729)
chain: MQSTSNHLWLLSDILGQGATANVFRGRHKKTGDLFAIKVFNNISFLRPVDVQMREFEVLKKLNHKNIVKLFAIEEETTTRHKVLIMEFCPCGSLYTVLEEPSNAYGLPESEFLIVLRDVVGGMNHLRENGIVHRDIKPGNIMRVIGEDGQSVYKLTDFGAARELEDDEQFVSLYGTEEYLHPDMYERAVLRKDHQKKYGATVDLWSIGVTFYHAATGSLPFRPFEGPRRNKEVMYKIITGKPSGAISGVQKAENGPIDWSGDMPVSCSLSRGLQVLLTPVLANILEADQEKCWGFDQFFAETSDILHRMVIHVFSLQQMTAHKIYIHSYNTATIFHELVYKQTKIISSNQELIYEGRRLVLEPGRLAQHFPKTTEENPIFVVSREPLNTIGLIYEKISLPKVHPRYDLDGDASMAKAITGVVCYACRIASTLLLYQELMRKGIRWLIELIKDDYNETVHKKTEVVITLDFCIRNIEKTVKVYEKLMKINLEAAELGEISDIHTKLLRLSSSQGTIETSLQDIDSRLSPGGSLADAWAHQEGTHPKDRNVEKLQVLLNCMTEIYYQFKKDKAERRLAYNEEQIHKFDKQKLYYHATKAMTHFTDECVKKYEAFLNKSEEWIRKMLHLRKQLLSLTNQCFDIEEEVSKYQEYTNELQETLPQKMFTASSGIKHTMTPIYPSSNTLVEMTLGMKKLKEEMEGVVKELAENNHILERFGSLTMDGGLRNVDCL
binding (Myc‐AGO2 (human) [3]): binds

B3: pS172‐TBK1 (enzyme, UniProt Q9UHD2 1-729)
chain: MQSTSNHLWLLSDILGQGATANVFRGRHKKTGDLFAIKVFNNISFLRPVDVQMREFEVLKKLNHKNIVKLFAIEEETTTRHKVLIMEFCPCGSLYTVLEEPSNAYGLPESEFLIVLRDVVGGMNHLRENGIVHRDIKPGNIMRVIGEDGQSVYKLTDFGAARELEDDEQFVSLYGTEEYLHPDMYERAVLRKDHQKKYGATVDLWSIGVTFYHAATGSLPFRPFEGPRRNKEVMYKIITGKPSGAISGVQKAENGPIDWSGDMPVSCSLSRGLQVLLTPVLANILEADQEKCWGFDQFFAETSDILHRMVIHVFSLQQMTAHKIYIHSYNTATIFHELVYKQTKIISSNQELIYEGRRLVLEPGRLAQHFPKTTEENPIFVVSREPLNTIGLIYEKISLPKVHPRYDLDGDASMAKAITGVVCYACRIASTLLLYQELMRKGIRWLIELIKDDYNETVHKKTEVVITLDFCIRNIEKTVKVYEKLMKINLEAAELGEISDIHTKLLRLSSSQGTIETSLQDIDSRLSPGGSLADAWAHQEGTHPKDRNVEKLQVLLNCMTEIYYQFKKDKAERRLAYNEEQIHKFDKQKLYYHATKAMTHFTDECVKKYEAFLNKSEEWIRKMLHLRKQLLSLTNQCFDIEEEVSKYQEYTNELQETLPQKMFTASSGIKHTMTPIYPSSNTLVEMTLGMKKLKEEMEGVVKELAENNHILERFGSLTMDGGLRNVDCL
modifications: phosphoserine at 172
binding (Myc‐AGO2 (human) [4]): binds

Reference: article PMC11022703
